Experimental data reported in PubChem BioAssay AID1487 (National Center for Advancing Translational Sciences (NCATS), 2009).
This is one part of the list. Shown are side measurements of this screen, not its main read-out; they come without a call. Compounds called inactive in the main read-out are mostly missing here. The note in brackets gives the kind of curve behind each potency; many fits are weak.

Experiment: qHTS Assay for Modulators of Lamin A Splicing
Conditions: HeLa LMNA splicing GFP/RFP minigene ratio, 48 h
Procedure, shortened: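 S3 HeLa cells stably expressing lamin A-EGFP splicing minigene plus DsRed2, 600 cells/well, 48 h compound exposure at 37C. Laser-scanning cytometry; analysed as GFP (500-530 nm)/RFP (575-640 nm) total intensity ratio; 0.5% DMSO vehicle.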

[1] = measured here: GFP splicing reporter channel
[2] = measured here: RFP viability control channel

For `CCCCCCCCCC(=O)NC(CN1CCOCC1)[C@H](O)c1ccccc1` (stereo partly specified), the AC50 [1] was 6.31 µM [falling, partial curve, poor fit] and the AC50 [2] was 0.00447 µM [falling, full curve, poor fit].
With `COC(=O)c1ccc(Oc2nc(Nc3ccc(C)c(C)c3)nc(N(C)C)n2)cc1` the AC50 [1] was 35.5 µM [rising, single point] and the AC50 [2] was 35.5 µM [rising, single point].
With `CCOC(=O)c1ccc(CNC(=O)c2cc(C(C)(C)C)oc2C)o1` the AC50 [1] was 5.62 µM [falling, single point] and the AC50 [2] was 5.62 µM [falling, single point].
With `COc1ccc(C=O)c(OC)c1` the AC50 [1] was 0.01 µM [falling, full curve, poor fit].
For `Fc1ccc(Nc2nc(SCc3ccccc3Cl)nc3ccccc23)cc1`, the AC50 [1] was 35.5 µM [falling, single point] and the AC50 [2] was 35.5 µM [falling, single point].
In the case of `O=C(c1ccc(Cl)c(Cl)c1)N1CCC(=O)N(C(COCc2cccc(Cl)c2)Cc2ccccc2)CC1` (stereo unspecified), the AC50 [1] is reported as 12.6 µM [rising, single point] and the AC50 [2] is reported as 17.8 µM [rising, partial curve].
In the case of `Cc1[nH]n(-c2ccccc2)c(=O)c1/C=N\NC(=O)C1COc2ccccc2O1` (stereo unspecified), the AC50 [2] is reported as 35.5 µM [rising, single point].
In the case of `NC(=O)C1CCN(C(=O)c2ccc3c(c2)N(Cc2cccc(Cl)c2)C(=O)c2ccccc2S3=O)CC1` (stereo unspecified), the AC50 [2] is reported as 1.41 µM [falling, full curve].
In the case of `CN1C(=O)N(S(=O)(=O)c2ccc(F)c(F)c2F)C(=O)C1(C)C`, the AC50 [2] is reported as 6.31 µM [falling, full curve, poor fit].
In the case of `Cc1ccc(C(=O)NC(=C(Cl)Cl)S(=O)(=O)c2ccccc2)cc1`, the AC50 [1] is reported as 20 µM [falling, partial curve, poor fit] and the AC50 [2] is reported as 25.1 µM [falling, single point].
In the case of `Cc1ccc(CNC(=O)/C=C/C(=O)O)cc1`, the AC50 [2] is reported as 0.0794 µM [rising, full curve, poor fit].
With `C[C@H](N[C@@H](C)COc1ccccc1)[C@H](O)c1ccc(O)cc1` the AC50 [1] was 0.708 µM [falling, partial curve, poor fit].
With `Cc1c(O)c(S(=O)(=O)c2ccccc2)c(=O)n(-c2ccccc2)c1-c1ccccc1` the AC50 [2] was 3.16 µM [rising, partial curve, poor fit].
For `Cn1c(NCC(O)c2ccccc2)nc2c1c(=O)n(Cc1ccc(Cl)cc1)c(=O)n2C` (stereo unspecified), the AC50 [2] was 10 µM [rising, partial curve, poor fit].
In the case of `COCCn1c(CN2CCN(c3cccc(Cl)c3)CC2)nc2c1c(=O)n(C)c(=O)n2C`, the AC50 [2] is reported as 7.94 µM [rising, partial curve].
With `COC(=O)[C@H]1C[C@@H]1[C@H](NC(=O)c1cc(C)on1)c1ccccc1` the AC50 [2] was 2.24 µM [falling, partial curve, poor fit].
For `COC(=O)c1c(C)[nH]c(C)c1-c1ccccc1`, the AC50 [1] was 3.98 µM [rising, partial curve, poor fit] and the AC50 [2] was 20 µM [rising, single point].
For `CCc1c(C)sc2c1CCN(Cc1cccc(OC)c1)C2c1ccccc1` (stereo unspecified), the AC50 [2] was 17.8 µM [rising, single point].
With `CC(C)(C)c1csc(NC(=O)Cc2cccs2)n1` the AC50 [1] was 0.355 µM [rising, full curve, poor fit] and the AC50 [2] was 31.6 µM [rising, single point].
In the case of `CCC(C(=O)NC1CCCC1)N(C(=O)c1snc(C(N)=O)c1N)c1ccc2c(c1)OCCO2` (stereo unspecified), the AC50 [1] is reported as 11.2 µM [rising, partial curve, poor fit].
For `CCCCCCCCCCCCCCCCOP(=O)([O-])OCC[N+](C)(C)C`, the AC50 [1] was 12.6 µM [rising, partial curve] and the AC50 [2] was 3.55 µM [rising, full curve].
For `COc1ccc(NC(=O)CCCSc2ccccc2)cc1`, the AC50 [1] was 6.31 µM [falling, partial curve].
In the case of `O=[N+]([O-])c1cc(Cl)ccc1N1CCN(c2cccc(C(F)(F)F)c2)CC1`, the AC50 [2] is reported as 17.8 µM [rising, partial curve].
For `COc1ccc(C2CC(=O)N3C(=C2C#N)SCC3(O)c2ccccc2)cc1` (stereo unspecified), the AC50 [2] was 14.1 µM [rising, partial curve].
For `CCCCCCc1nc2ccccc2c(=O)n1N`, the AC50 [2] was 35.5 µM [rising, single point].
In the case of `O=C(c1cnc2ccc(Cl)cc2c1Cl)N1CCOCC1`, the AC50 [2] is reported as 7.08 µM [falling, partial curve, poor fit].
In the case of `COc1ccccc1NC(=O)C1=C(C)Nc2c(C(=O)Nc3ccc(C)cc3)cnn2C1c1cccc(OC)c1OC` (stereo unspecified), the AC50 [1] is reported as 22.4 µM [falling, partial curve, poor fit] and the AC50 [2] is reported as 0.158 µM [falling, full curve, poor fit].
For `O=C(CSc1ncnc2c1cnn2CCO)Nc1cccc(C(F)(F)F)c1`, the AC50 [1] was 15.8 µM [rising, single point] and the AC50 [2] was 35.5 µM [rising, single point].
For `COc1ccc(CNC(=O)Cn2c(=O)nc(-c3ccccc3)c3cc(Cl)ccc32)cc1OC`, the AC50 [1] was 0.0126 µM [rising, full curve, poor fit] and the AC50 [2] was 0.01 µM [rising, full curve, poor fit].
In the case of `Cc1ccc(Sc2ncnc3onc(C)c23)cc1`, the AC50 [2] is reported as 11.2 µM [rising, partial curve, poor fit].
With `COc1cccc(C(=O)Nc2ccc(-n3nncc3-c3ccccc3)cc2)c1OC` the AC50 [1] was 11.2 µM [falling, partial curve, poor fit].
In the case of `CN(CC(O)COC(c1ccccc1)c1ccccc1)C1CCCCC1` (stereo unspecified), the AC50 [1] is reported as 20 µM [falling, partial curve, poor fit].
In the case of `O=c1cnc2cnc(Nc3ccccc3)nc2n1Cc1cccs1`, the AC50 [1] is reported as 10 µM [falling, partial curve] and the AC50 [2] is reported as 11.2 µM [falling, partial curve].
In the case of `O=C(Nc1cccc(S(=O)(=O)NCc2ccco2)c1)c1cc(-c2ccc(F)cc2)nc2ccccc12`, the AC50 [2] is reported as 35.5 µM [rising, single point].
For `Cc1sc(NC(=O)C2C3C=CC(C3)C2C(=O)O)c(C(N)=O)c1-c1ccc(C(C)C)cc1` (stereo unspecified), the AC50 [1] was 12.6 µM [rising, partial curve] and the AC50 [2] was 22.4 µM [rising, partial curve].
In the case of `COc1ccc(-c2[nH]ncc2-c2nc(C)cs2)c(O)c1`, the AC50 [1] is reported as 0.0141 µM [falling, full curve, poor fit].
In the case of `O=C(CCl)N(c1ccc(Cl)cc1)c1c[nH]c2ccccc12`, the AC50 [1] is reported as 35.5 µM [falling, single point] and the AC50 [2] is reported as 35.5 µM [falling, single point].
For `COc1ccccc1NC(=O)C1=C(C)Nc2nnnn2C1c1ccccn1` (stereo unspecified), the AC50 [2] was 35.5 µM [rising, single point].
In the case of `O=C(Nc1ccc(Cc2ccncc2)cc1)C1CCC(N2C(=O)C3CC=CCC3C2=O)CC1` (stereo unspecified), the AC50 [2] is reported as 20 µM [rising, single point].
In the case of `CCOc1cc(N2CCOCC2)c(OCC)cc1NC(C)C(=O)N1CCN(CC)CC1` (stereo unspecified), the AC50 [1] is reported as 0.794 µM [falling, full curve, poor fit].
For `Cc1nc2c(C(=O)NCCC(C)C)c[nH]n2c(=O)c1Cc1ccccc1F`, the AC50 [1] was 11.2 µM [falling, partial curve] and the AC50 [2] was 14.1 µM [falling, partial curve].
With `CC(=O)Nc1ccc(N=Nc2ccc(O)cc2)cc1` the AC50 [2] was 25.1 µM [rising, single point].
For `COc1ccc(-c2noc(CCCC(=O)Nc3cccc(Cl)c3C)n2)cc1`, the AC50 [1] was 22.4 µM [falling, single point] and the AC50 [2] was 14.1 µM [falling, partial curve, poor fit].
With `CC(NC(=O)/C=C/c1ccc(Br)cc1)c1ccccc1` (stereo unspecified) the AC50 [2] was 11.2 µM [rising, partial curve, poor fit].
For `Cc1ccc(-c2cnc(NC(=O)c3cccc(Br)c3)s2)c(C)c1`, the AC50 [1] was 1.26 µM [rising, partial curve, poor fit] and the AC50 [2] was 12.6 µM [rising, partial curve].
In the case of `CCn1c(COc2ccccc2C)nnc1SCC(=O)N1CCC(C)CC1`, the AC50 [1] is reported as 11.2 µM [rising, single point] and the AC50 [2] is reported as 12.6 µM [rising, single point].
With `O=C(/C=C/c1ccccc1Cl)Nc1cccc(S(=O)(=O)NC2=NCCCCC2)c1` the AC50 [1] was 11.2 µM [rising, partial curve] and the AC50 [2] was 17.8 µM [rising, partial curve].
For `Cc1ccc(NC(=O)CSC2=C(C#N)C(c3ccco3)C3=C(CCCC3=O)N2)cc1` (stereo unspecified), the AC50 [2] was 10 µM [rising, partial curve].
For `O=C(NC(Nc1ncc(S(=O)(=O)c2ccc([N+](=O)[O-])cc2)s1)(C(F)(F)F)C(F)(F)F)c1ccc(Cl)cc1`, the AC50 [2] was 5.62 µM [rising, full curve].
With `Cc1ccc2sc(N(Cc3cccnc3)C(=O)Cc3ccccc3)nc2c1C` the AC50 [1] was 7.94 µM [rising, partial curve, poor fit] and the AC50 [2] was 15.8 µM [rising, partial curve].
In the case of `CC1=C(C(N)=O)C(c2cccc(O)c2)n2ncnc2N1` (stereo unspecified), the AC50 [1] is reported as 7.08 µM [rising, partial curve, poor fit].
For `CCCc1nc(NCc2ccncc2)c2nnn(Cc3ccccc3F)c2n1`, the AC50 [2] was 14.1 µM [rising, partial curve, poor fit].
In the case of `Cc1oc(-c2ccccc2Cl)nc1CSCC(=O)N1CCCC1`, the AC50 [2] is reported as 2.24 µM [rising, full curve].
With `Cc1ccc(-n2c(C)cc(C3=NNC(=NC4CC4)SC3)c2C)cc1C` the AC50 [1] was 14.1 µM [rising, single point] and the AC50 [2] was 12.6 µM [rising, single point].
